Hit rate of the full screen: of about 31,000 sequences, about 1,400 (4.5%) were called active.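 How the source made its calls: active means median seed-adjusted z-score above 1 or below -1; inactive means the rest.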 Some of the results follow.
test: Novel Modifiers of Survival Motor Neuron (SMN) Protein: Gene Identification via Genome-wide siRNA Screen; details: HEK293T SMN2-luciferase reporter, siRNA knockdown, 72 h; actives lie on both sides;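 further: luminescence tracks full-length SMN protein made from the SMN2 reporter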
How it was run: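 HEK293T cells stably carrying an SMN2 promoter/splicing cassette–luciferase reporter were reverse-transfected with 1 pmol siRNA per well (druggable-genome library, 3 siRNAs per gene) and grown 72 h at 37 °C. Luminescence, normalized to negative-control siRNA and log10-transformed, was scored as MAD.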

| Sequence | median seed-adjusted z-score |
| --- | --- |
| GAAGUAAGUUUGUUGUAGATT against PGAP1 | inactive: -0.272 |
| UCCUAUCAGAAGUUGCAUATT against RKHD4 | inactive: 0.0683 |
| GGCAAAAAGCUGACUGAGATT against GPD1 | inactive: 0.558 |
| CACCAGAACUUCCCAUUAATT against ALG8 | inactive: -0.0604 |
| CCGGCUACACCUUCCGUAATT against DNAJB8 | active: -1.09 |
| GCUGGUUUACCAAAACAUATT against GNA14 | inactive: 0.363 |
| UAUUCGUUCUGUACAAGGATT against LILRB5 | inactive: 0.834 |
| CCAUCACUUUAAUCAAUCATT against ABCA6 | inactive: 0.113 |
| GCUCAGAUUAUGUAUUUGATT against MAT2B | inactive: -0.554 |
| CUAUGUUUCUAAGAUCAUATT against FAHD1 | inactive: -0.157 |
| CAACAAGUUUGACAGUCAATT against CGN | inactive: 0.33 |
| CAGAGACAAUCAUCGACAATT against HMGCS1 | inactive: 0.0596 |
| CCCAAUCCCUAUUUGAGAATT against ADRA1D | inactive: -0.18 |
| CGACAAACCUGGCGUCUAUTT against KLK8 | inactive: 0.736 |
| CUGUCGACCUAGACCAUAATT against PHF20 | inactive: 0.138 |
| CGGCAGUGGUUGUAUCAGATT against PRSS16 | inactive: -0.0226 |
| GGCCCGGAUAAAAACCAAATT against SPINK4 | inactive: -0.0134 |
| ACCUAGAAGUGAACUGUGATT against GP1BA | inactive: 0.0803 |
| CGCCCAGAAUUGGUCCAAATT against tAKR | inactive: -0.356 |
| GCUAAGUACAAAUCAUUCATT against FCN1 | inactive: 0.346 |
| ACACGGUUUUUGCACCAAATT against WTIP | inactive: 0.222 |
| GAAUGUACAAUGUACCUCUTT against ST6GALNAC5 | inactive: -0.0321 |

| Sequence | median seed-adjusted z-score |
| --- | --- |
| CUCUCAGACAAGCUACUGATT against CCL27 | inactive: 0 |
| GAUCCGAGCCUACUAUGAATT against C3 | inactive: 0.0281 |
| GGCUUUAGACCUCCACCAUTT against EDN3 | inactive: -0.427 |
| GGAUAAUGAUCGCGAGGAATT against ALS2 | inactive: 0 |
| CAGUUGUCUGGAUCCAUUUTT against BRAF | inactive: 0.271 |
| GCAUCUAUACUCCAAGCGATT against PPP1R16A | inactive: 0.322 |
| AGAACAUUAUCGACAUUUATT against TRIM54 | inactive: -0.219 |
| AACCUAUAAUGAGGAUGUATT against ZNRF2 | inactive: 0 |
| GCACGCUAUUUUUCUACGATT against TIAM1 | inactive: 0.13 |
| GCUCAAGAGCUUGCACAGATT against SLC25A42 | active: -1.02 |
| AGAACGUGAGUGACAUUUUTT against POLD2 | inactive: 0.97 |
| CUAAUUAGAUGACAGCAAATT against FOXJ1 | inactive: -0.553 |
| GACUAUGGAGAAAACGAGATT against CXCR3 | inactive: 0.693 |
| GCAUUAUGGGUUUUCAGUUTT against GPR18 | inactive: -0.378 |
| AAAUAAUUAGAAUGAGCAATT against LAIR2 | inactive: -0.481 |
| CGCCCAGAGAUUCACCCAATT against THA1P | inactive: -0.509 |
| CACUGAAUGUGAGAGCUGUTT against HRC | active: 1.06 |
| AAUUUUCCUGUGAUAGAAATT against PATE1 | active: 1.21 |
| GUAAUGUUCUUAAACGAAUTT against PPP2R5C | active: 1.14 |
| ACGACUCUUUGGUACCACATT against ATP6AP1 | inactive: 0.358 |
| GCCCUAAACCUGCCGGAAATT against EVX1 | active: 1 |
| GAGAGAGAGGGAUAGAAAATT against ANK1 | inactive: -0.282 |

| Sequence | median seed-adjusted z-score |
| --- | --- |
| GAAUCCAGAGUUUCUGUAATT against GRPEL2 | inactive: 0.0821 |
| CCCUCUCACCAUUACUUCATT against CRYAB | inactive: 0.354 |
| AAAUGAUUCAGCUCCCUUATT against SPRR1B | inactive: -0.721 |
| AUAAAAAGCCUCCUCCAUATT against GLUD2 | inactive: -0.0225 |
| CUAUGUAUUCUGCAACAAATT against CTH | inactive: 0.629 |
| CAAUCCUCAUGCUAAACCATT against SGK1 | inactive: -0.659 |
| GGACGAAUGUUUGAGGUCUTT against B3GNTL1 | inactive: 0 |
| CAGUCACCAAGCAAGCUUATT against CTSE | inactive: -0.1 |
| GGUGGAUCUUCAUACAGUUTT against NAT8B | inactive: 0.206 |
| GAAUCUUACGGGAAGAUCATT against SMAD7 | inactive: -0.25 |
| GAUUGAUAGAGACAAUUCATT against RNGTT | active: -1.55 |
| AAUCGCUCAUGGUUUUUAATT against LRFN3 | inactive: 0.483 |
| GGCUCAACGUAUAAGCGAATT against PIP5K1B | inactive: 0.0917 |
| CCAGAAAAAUCAUACAGGATT against ZNF260 | inactive: -0.682 |
| CCAACUGUCUUAGUACCCATT against RBM25 | inactive: -0.265 |
| UGCCCAUGCUGGUUUCAUATT against DAK | inactive: -0.372 |
| GGACGGUAGAAGAUCAAUUTT against MYH13 | inactive: 0.612 |
| GAAGCUACUCCAUAGAUUUTT against INPP4B | inactive: 0.0722 |
| GAGUCACAGAAUAGAUUAATT against KLRA1 | inactive: 0.918 |
| CCAUAUCAGGAUAUCAGGATT against PPIL4 | inactive: 0.00225 |
| GGGAGAUGCUAACAAGGGATT against ZAK | inactive: -0.113 |
| GGCUCCUACUUGAUGGUCATT against PTPRU | inactive: 0 |

Some of the entries so far, with tabs.
Sequence	median seed-adjusted z-score
AAAUGAUUCAGCUCCCUUATT against SPRR1B	inactive: -0.721
CAAUCCUCAUGCUAAACCATT against SGK1	inactive: -0.659
GAAUCUUACGGGAAGAUCATT against SMAD7	inactive: -0.25
GGCUCAACGUAUAAGCGAATT against PIP5K1B	inactive: 0.0917
UGCCCAUGCUGGUUUCAUATT against DAK	inactive: -0.372
GGGAGAUGCUAACAAGGGATT against ZAK	inactive: -0.113

Continued:

| Sequence | median seed-adjusted z-score |
| --- | --- |
| AGAUAAGCAUGGUGCCCAATT against BPI | inactive: 0 |
| ACACCAGGGUUGUCUACAATT against LCAT | inactive: 0.526 |
| CCAUGAUCAUGAUUGGGAUTT against SLC46A2 | inactive: 0 |
| CACCGACGGUGAUGGAGAATT against PPP3R2 | inactive: -0.143 |
| CAGUCUGCCGAAGAAGUAATT against CDC2L1 | active: -1.14 |
| GGGUAUCAGAGGAAAACGATT against KRIT1 | inactive: -0.447 |
| GUGCUUAAUAUAUCGGAAATT against IL1R1 | inactive: 0.135 |
| GGCUGCACAUAUACCUUAATT against RRN3 | inactive: 0.0382 |
| GAGCUGCACCUAGAGAUGATT against RBP1 | inactive: 0.321 |
| CGACGACCUUCGACUAAAATT against PIP3-E | inactive: 0.676 |
| GCUUAUCGGUUGAUCAUCATT against SLC6A4 | active: 1.43 |
| CCCUGCAGGCGAAAAAGAATT against PRRX1 | inactive: -0.172 |
| GGAUCUAUCUUAACGACCATT against GAN | active: -1.07 |
| GGCUCUUACGGCUACAAUUTT against HOXB5 | inactive: 0.061 |
| GCCUGCAAGUGUCCCAAAATT against NTN1 | inactive: -0.0419 |
| CGGUGACUGUCCCAACUUUTT against TNFRSF1A | inactive: 0.00772 |
| GGCAUUCGCUUGAACAGCATT against DRG1 | inactive: 0.336 |
| AGAGCAUGUUCAAACUGUATT against EFHD1 | inactive: -0.326 |
| CACGGACUCCAAAACAGUATT against ST14 | inactive: -0.534 |
| GCCGGACGACGACAUUCUATT against NRGN | inactive: -0.381 |
| GGACAGUCAUUGAUAGUUATT against XPOT | inactive: 0.366 |
| GUACAUGACUAUAUCAGGATT against ANXA5 | inactive: 0.268 |

| Sequence | median seed-adjusted z-score |
| --- | --- |
| GGAUUGAAGGUGUUCACUATT against PZP | inactive: -0.878 |
| ACAAUGAUGUCGAUCUGAUTT against BCKDK | inactive: 0 |
| AGAUACUCACGGACAUUAUTT against COASY | inactive: 0 |
| GCACUUUAGAAUCACACGATT against TRMT6 | inactive: 0.069 |
| GGAGAUCCGUGAUGUAACATT against RUVBL2 | inactive: -0.0764 |
| CACCGAUUCAGGUAUUACATT against PRKRA | inactive: 0.00259 |
| CCAUAUUACAGAGUUCCGATT against ZBTB26 | inactive: 0 |
| GAAUGGUCCUUAUGAACGATT against FAH | inactive: -0.0836 |
| ACAUCAUCAGCAGCCCGAATT against USP32 | inactive: 0.484 |
| CGAACUGAGCAAUAAGGAATT against CBARA1 | inactive: -0.0426 |
| GGAUGAGUACAGAUUUACATT against CLPX | inactive: -0.0436 |
| CCAUUCAAAUGGAGCACGATT against SIGLEC11 | inactive: -0.395 |
| GUCCCGAUCUGUGCUCUGATT against DUSP2 | inactive: 0.576 |
| CCAAUUCUGUUGUAAAUAATT against CITED1 | inactive: 0 |
| GCAAUAGGAUGGAUGAUCATT against GPSM2 | inactive: -0.755 |
| CAUCGUCCACAACUACUCATT against EPN1 | inactive: 0 |
| GGUGGUAAUCAUUACCUUATT against RBKS | inactive: 0.229 |
| GCAUAUCGCUUACGUUCUATT against USP14 | inactive: 0 |
| CAAAGUAUCGGGUCAUCUATT against DMRTA1 | inactive: -0.162 |
| GAACGACAAGGAUCAAGAATT against SCG2 | inactive: 0.155 |
| GUGGGACCCUGAGUACUUATT against MIER1 | inactive: 0.0271 |

— PubChem BioAssay AID1347426 (Functional Genomics Laboratory (NCATS/FGL), 2020)
